Results reported in patent US9675662B2, “Compositions for inhibition of RNA polymerase I and methods of production and use thereof” (The Board of Regents of the University of Oklahoma, priority 2011, dated 2017).

Tested on: WI38 cells
Assay: Growth of WI38 cells (MTT assay) and peptide uptake
Type: cell-based
Conditions: fluorescent TAT-tagged 22mer
Method: FIG. 11 illustrates the effects of TAT-22mer on WI38 cells after 48 hours using the MTT assay.
In these experiments, and in others described below, cell numbers were determined using the […], and the absorbance at 570 nm is presented instead of cell numbers.

Row | Sequence | uptake of peptide by WI38 cells
1 | NKVSSSHIGCLVHGCFNASIPK (listed as Homo sapiens) [22mer, amino acids 137 to 158 of mouse Rpa43] | did take up the peptide
2 | YGRKKEEQRRNKVSSSHIGCLVHGCFNASIPK (1st ten amino acids are TAT peptide from HIV; last 22 amino acids are from Homo sapiens) [TAT-22mer, 22mer with ten TAT amino acids added to the N-terminus] | cells take up
